Experimental data from PubChem BioAssay AID1625 (Sanford-Burnham Center for Chemical Genomics, 2009).
Among all 190,000 compounds or so, about 570 (0.3%) were called active. Inconclusive means that the source gave no clear call. Such entries were picked first, then a sample of the others.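 How the source made its calls: active means z-score above 3 at 5 µM with at least 500 cells counted in the well; inconclusive means wells under 500 cells, flagged as cytotoxic or low count; inactive means the rest.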

Assay: up-regulation of insulin promoter-GFP reporter – imaging, high-content screening, mouse beta cells (AID 1625)
Conditions: MIN6 insulin promoter-GFP reporter, at 5 µM, hits give high values

| SMILES | z-score |
| --- | --- |
| CCCCCCCn1c2c(c(=N)c3c1CCC3)CCCC2 | inconclusive: -8.02 |
| CCOC(=O)CC1C(=O)NCCN1S(=O)(=O)c1ccc(Cl)cc1Cl (stereo unspecified) | active: 3.29 |
| CC1CCC(C(C)C)C(OC(=O)Cn2c(-c3ccccc3)[n+](C)c3ccccc32)C1 (stereo unspecified) | inconclusive: -2.23 |
| COc1cc(C(=O)NCCOc2cccc(C)c2)c(Br)c(OC)c1OC | inactive: 0.54 |
| CC(C)c1ccc(NC(=O)CSc2nc3c(c(=O)[nH]2)CCC3)cc1 | inconclusive: -5.74 |
| CCC(Sc1nc(C)cc(=O)[nH]1)C(=O)Nc1nc(-c2ccccc2)cs1 (stereo unspecified) | inactive: 0.12 |
| COc1ccc(OC)c(S(=O)(=O)N2CCCCC2C(=O)O)c1 (stereo unspecified) | inconclusive: -0.01 |
| COC(=O)Cn1cnc2sc(C)c(S(=O)(=O)N3CCC(C)CC3)c2c1=O | inactive: -0.66 |
| O=C(CSc1ccc(-c2ccccc2)nn1)NCC1CCCO1 (stereo unspecified) | active: 3.02 |
| Cc1ccc(C(C)C)c(OCc2ccc(C(=O)N/N=C/c3cccc(O)c3O)cc2)c1 | inconclusive: -2.05 |
| CCN(CC)c1ccc2cc(S(=O)(=O)c3ccc(Cl)cc3)c(=O)oc2c1 | active: 6.96 |
| CCOc1ccc(NC(=O)C2CCC(C)(C(=O)O)C2(C)C)cc1 (stereo unspecified) | active: 3.64 |
| COC(=O)c1ccc2c(c1)C(C)(C)C(/C=C/c1ccc(OC)c(OC)c1OC)=[N+]2C | inconclusive: -2.18 |
| Cc1cc(C)n(-c2nc(N(c3ccccc3)c3ccccc3)nc(-n3nc(C)cc3C)n2)n1 | inconclusive: -1.55 |
| CCCn1c(C)cc(/C=C(\C#N)C(=O)OCC(=O)NC(=O)NC(C)(C)C)c1C | inconclusive: 0.22 |
| CCOc1ccc(-c2c(C#N)c(N)nc3sc(C(=O)c4ccccc4)c(N)c23)cc1 | active: 9.11 |
| O=C(CCl)Nc1ccc(Sc2ccc(NC(=O)CCl)cc2)cc1 | inconclusive: -4.04 |
| O=C(Nc1cccc(-c2csc(Nc3cccc(C(F)(F)F)c3)n2)c1)c1cc([N+](=O)[O-])cc(C(F)(F)F)c1 | inconclusive: -4.28 |
| Cc1ccc(-n2c(-c3ccc(Br)cc3)c[n+]3c2CCc2ccc4cccnc4c2-3)cc1 | inconclusive: -5.48 |

Some of the entries above in another layout:
SMILES | z-score
Cc1ccc(C(C)C)c(OCc2ccc(C(=O)N/N=C/c3cccc(O)c3O)cc2)c1 | inconclusive: -2.05
COC(=O)c1ccc2c(c1)C(C)(C)C(/C=C/c1ccc(OC)c(OC)c1OC)=[N+]2C | inconclusive: -2.18
Cc1cc(C)n(-c2nc(N(c3ccccc3)c3ccccc3)nc(-n3nc(C)cc3C)n2)n1 | inconclusive: -1.55

Following part:

| SMILES | z-score |
| --- | --- |
| CS(=O)(=O)N1CCN(c2ncnc3c2cnn3-c2ccccc2)CC1 | inactive: -0.13 |
| Cc1cccc(-c2ncc(CN3CCCC(CO)(Cc4ccccc4C)C3)cn2)c1 (stereo unspecified) | active: 3.13 |
| O=C(OCn1ncc(Br)c(Br)c1=O)c1c(F)cccc1F | inconclusive: -3.67 |
| CN1/C(=C\C(=O)c2cncc(Br)c2)C(C)(C)c2ccccc21 | inconclusive: -3.98 |
| CC(C)(c1ccccc1)c1ccc(OCC(O)CNC2CCN(Cc3ccccc3)CC2)cc1 (stereo unspecified) | inconclusive: -3.31 |
| COc1ccc(/C=C(\C#N)C(=O)OCC(=O)Nc2c(C)cccc2C(C)C)cc1 | active: 3.36 |
| CCCc1n[nH]c2c1C(=O)C(C(=O)OC)C(C)(C)C2 (stereo unspecified) | active: 3.65 |
| COc1ccc(N=c2scc(-c3ccc(S(=O)(=O)N4CCOCC4)cc3)n2CCCO)cc1 | inconclusive: -3.34 |
| CCS(=O)(=O)c1ccc2oc(SCC(=O)NC3CCCC(C)C3C)nc2c1 (stereo unspecified) | active: 4.28 |
| Cc1ccc(NC2=C(Cl)C(=O)c3ccccc3C2=O)cc1 | inconclusive: -1.8 |
| CC1=CC(=O)C(C(C)C)=C/C1=N/OS(=O)(=O)c1ccccc1 | inconclusive: -1.41 |
| Cn1c(=NC(=O)CCl)sc2ccccc21 | inactive: -0.17 |
| Cc1nc(C)c(C(=O)N/N=C/c2cc(Br)ccc2O)s1 | inconclusive: -4.09 |
| N#CCCN(C(=O)COC(=O)c1ccc(S(=O)(=O)Nc2ccccc2)cc1)c1ccccc1 | inactive: 0.28 |
| CC[N+](CC)(CC#Cc1ccccc1)CC#Cc1ccccc1 | inconclusive: -1.89 |
| Fc1ccc2[nH]c3c(N4CCN(Cc5ccc6c(c5)OCO6)CC4)ncnc3c2c1 | inconclusive: -3.19 |
| CC(C)CC(=O)/C(=C\c1ccc(Cl)cc1Cl)n1cncn1 | inactive: -0.6 |
| COc1ccc(C(=O)OCCCN(C)C)cc1OC | inconclusive: -7.8 |
| CC(C)(C)n1nnnc1C(c1ccc(C(F)(F)F)cc1)N(Cc1ccccc1)Cc1ccco1 (stereo unspecified) | inactive: -0.8 |

| SMILES | z-score |
| --- | --- |
| O=C(CCl)N1c2ccccc2OCC1c1ccccc1 (stereo unspecified) | inconclusive: -1.41 |
| COc1ccc(S(=O)(=O)N2CCN(c3cc(-c4ccccc4)nc4ncnn34)CC2)cc1 | inconclusive: -1.74 |
| FC(F)Oc1ccc(-c2c[n+]3c(n2-c2ccccc2)CCCCC3)cc1 | inconclusive: -2.37 |
| O=C(CCl)Nc1cccc(-c2cnc3ccccc3n2)c1 | inconclusive: -2.23 |
| COc1ccc(OCC(=O)OC2CCN(C)CC2)cc1 | inactive: 1.85 |
| COC(=O)C1=C(C)Nc2c(c(=O)n(C)c(=O)n2C)C1c1cccnc1 (stereo unspecified) | inactive: 1.22 |
| Cc1ccc(C)c(OCC(O)CN2CCC(CN3C(=O)c4cccc5cccc(c45)C3=O)CC2)c1 (stereo unspecified) | inconclusive: -3.28 |
| Cc1ccc(S(=O)(=O)Nc2ccc3nc(N)sc3c2)cc1 | inconclusive: -1.13 |
| Cn1c2c(c(=O)n(C)c1=O)C(C(F)(F)F)(C(F)(F)F)N=C(c1ccc(Cl)cc1)N2 | inconclusive: -5.02 |
| COc1ccc(NC(=O)N2CCN(C(=O)Nc3ccc(OC)cc3)CC2)cc1 | inactive: 0.07 |
| CCCCOc1ccc(Br)cc1CSC(=N)N | inconclusive: -2.91 |
| Cc1cc(-n2c(C)cc(C(=O)CSc3ncnc4ccccc34)c2C)no1 | inconclusive: -2.86 |
| COc1ccc(-n2c(-c3ccc(Cl)cc3)c[n+]3c2CCc2ccccc2-3)cc1 | inconclusive: -2.24 |
| O=C(C1=NN(c2ccccc2)C2C(=O)N(c3cccc(Cl)c3)C(=O)C12)c1ccccc1 (stereo unspecified) | active: 3.17 |
| O=C(c1cccc2ccccc12)N1CCN(c2ccc([N+](=O)[O-])c(NCc3ccco3)c2)CC1 | inactive: -2.22 |
| O=S(=O)(c1ccccc1)c1nc(-c2ccco2)oc1NCc1cccnc1 | inconclusive: -1.01 |
| COc1ccc(-c2cc3nc(C)cc(N4CC(C)CC(C)C4)n3n2)cc1 (stereo unspecified) | inconclusive: -3.28 |
| Cc1noc(C)c1S(=O)(=O)N1CCN(c2ccccc2)CC1 | inconclusive: 0.53 |
